# Some of these results come from one statement about several compounds together.
# Test system: rice blast fungus (Magnaporthe grisea)
# Assay: not given
# Assay type: in vivo
# Settings: 200 ppm, rice (Test Example 4)
row,SMILES,lesion area on the treated plant with respect to the lesion area on the non-treated plant [%]
1,Cn1nnn(-c2cccc(C3CC3)c2COc2cccc(-c3ccc(F)cc3)n2)c1=O [compound 66],≤ 30
2,COc1ccc(-c2cc(OCc3c(C)cccc3-n3nnn(C)c3=O)ccc2C)cn1 [compound 118],≤ 30
3,Cc1cccc(-n2nnn(C)c2=O)c1COc1cccc(-c2cccs2)c1 [compound 167],≤ 30
4,Cc1cccc(-n2nnn(C)c2=O)c1COc1cccc(-c2ccc(OC(F)(F)F)cc2)c1 [compound 48],≤ 30
5,Cc1cccc(-n2nnn(C)c2=O)c1COc1cc(-c2ccccc2)ccc1Cl [compound 128],≤ 30
6,COc1cccc(-c2cc(OCc3c(C)cccc3-n3nnn(C)c3=O)ccc2F)c1 [compound 149],≤ 30
7,Cc1cccc(-n2nnn(C)c2=O)c1COc1cccc(-c2cnn(C)c2)c1 [compound 210],≤ 30
8,COc1ccc(-c2cc(OCc3c(C)cccc3-n3nnn(C)c3=O)ccn2)cc1 [compound 86],≤ 30
9,COc1ccccc1-c1nccc(OCc2c(C)cccc2-n2nnn(C)c2=O)n1 [compound 94],≤ 30
10,COc1cccc(-n2nnn(C)c2=O)c1COc1cccc(-c2ccc(F)cc2)n1 [compound 70],≤ 30
11,Cc1cccc(-n2nnn(C)c2=O)c1COc1cccc(-c2ccccc2)c1F [compound 110],≤ 30
12,Cc1ccc(-c2cccc(OCc3c(C)cccc3-n3nnn(C)c3=O)n2)s1 [compound 176],≤ 30
13,Cc1cccc(-n2nnn(C)c2=O)c1COc1cc(-c2ccc(F)cc2)ccc1Cl [compound 132],≤ 30
14,"Cc1cccc(-n2nnn(C)c2=O)c1COc1cccc(-c2ccccc2)n1 [compound 1, 1-methyl-4-[3-methyl-2-(6-phenylpyridin-2-yloxymethyl)phenyl]-1,4-dihydrotetrazol-5-one]",≤ 30
15,Cc1cccc(-n2nnn(C)c2=O)c1COc1ccc(F)c(-c2ccccc2)c1 [compound 150],≤ 30
16,COc1ccc(-c2cccc(OCc3c(C)cccc3-n3nnn(C)c3=O)n2)c(OC)c1 [compound 178],≤ 30
17,Cc1cccc(-n2nnn(C)c2=O)c1COc1ccc(F)c(-c2ccc(Cl)cc2)c1 [compound 152],≤ 30
18,Cc1cccc(-n2nnn(C)c2=O)c1COc1ccnc(-c2ccc(F)cc2)n1 [compound 91],≤ 30
19,COc1ccc(-c2cc(OCc3c(C)cccc3-n3nnn(C)c3=O)ccc2F)cn1 [compound 151],≤ 30
20,Cc1cccc(-n2nnn(C)c2=O)c1COc1nccc(-c2ccc(Cl)cc2)n1 [compound 103],≤ 30
21,COc1cc(F)ccc1-c1cccc(OCc2c(C)cccc2-n2nnn(C)c2=O)c1 [compound 180],≤ 30
22,COc1ccc(-c2cccc(OCc3c(OC)cccc3-n3nnn(C)c3=O)n2)cc1 [compound 69],≤ 30
23,Cc1cccc(-n2nnn(C)c2=O)c1COc1ccnc(-c2cccc(Cl)c2)n1 [compound 97],≤ 30
24,COc1ccccc1-c1cc(OCc2c(C)cccc2-n2nnn(C)c2=O)ccc1OC [compound 144],≤ 30
25,Cc1cccc(-n2nnn(C)c2=O)c1COc1cccc(-c2ccc(C(F)(F)F)cc2)n1 [compound 7],≤ 30
26,COc1cccc(-c2cccc(OCc3c(C)cccc3-n3nnn(C)c3=O)n2)c1 [compound 15],≤ 30
27,Cc1cccc(-n2nnn(C)c2=O)c1COc1cc(-c2ccc(F)cc2)ccc1F [compound 124],≤ 30
28,Cc1cccc(-n2nnn(C)c2=O)c1COc1cccc(-c2cccnc2)n1 [compound 21],≤ 30
29,Cc1cccc(-n2nnn(C)c2=O)c1COc1ccnc(-c2cccc(Cl)c2)c1 [compound 84],≤ 30

# Same assay, conditions: 500 ppm, rice (Test Example 3)
row,SMILES,lesion area on the treated plant with respect to the lesion area on the non-treated plant [%]
1,Cc1cccc(-n2nnn(C)c2=O)c1COc1cccc(-c2ccccc2)c1 [compound 40],≤ 30
2,CCc1cccc(-n2nnn(C)c2=O)c1COc1cccc(-c2ccc(OC)cc2)n1 [compound 14],≤ 30
3,COc1ccc(-c2cc(OCc3c(C)cccc3-n3nnn(C)c3=O)ccc2F)cc1 [compound 153],≤ 30
4,COc1ccc(-c2cccc(OCc3c(C)cccc3-n3nnn(C)c3=O)n2)cc1F [compound 62],≤ 30
5,Cc1cccc(-n2nnn(C)c2=O)c1COc1cccc(-c2ccc(Cl)cc2)n1 [compound 2],≤ 30
6,Cc1ccc(-c2cccc(OCc3c(C)cccc3-n3nnn(C)c3=O)n2)cc1 [compound 6],≤ 30
7,COc1ccc(-c2ncnc(OCc3c(C)cccc3-n3nnn(C)c3=O)n2)cc1 [compound 109],≤ 30
8,Cc1cccc(-n2nnn(C)c2=O)c1COc1cccc(C2=CCCCC2)n1 [compound 18],≤ 30

# Test system: wheat rust fungus (Puccinia recondita)
# Assay: wheat rust control test, foliar spray before inoculation
# Assay type: in vivo
# Settings: 200 ppm, sprayed 5 days before inoculation (Test Example 6)
row,SMILES,area of lesion spots on the treated plant relative to that on an untreated plant [%]
1,Cc1cccc(-n2nnn(C)c2=O)c1COc1cccc(-c2ccccc2)c1 [compound 40],≤ 30
2,COc1ccc(-c2cc(OCc3c(C)cccc3-n3nnn(C)c3=O)ccc2C)cn1 [compound 118],≤ 30
3,COc1ccc(-c2cc(OCc3c(C)cccc3-n3nnn(C)c3=O)ccc2F)cc1 [compound 153],≤ 30
4,Cc1cccc(-n2nnn(C)c2=O)c1COc1cc(-c2ccccc2)ccc1Cl [compound 128],≤ 30
5,Cc1cccc(-n2nnn(C)c2=O)c1COc1cccc(-c2cnn(C)c2)c1 [compound 210],≤ 30
6,COc1cccc(-n2nnn(C)c2=O)c1COc1cccc(-c2ccc(F)cc2)n1 [compound 70],≤ 30
7,COc1ccc(-c2ccnc(OCc3c(C)cccc3-n3nnn(C)c3=O)n2)cc1 [compound 100],≤ 30
8,Cc1cccc(-n2nnn(C)c2=O)c1COc1cccc(-c2ccccc2Cl)c1 [compound 53],≤ 30
9,Cc1cccc(-n2nnn(C)c2=O)c1COc1cccc(-c2ccc(Cl)cc2)n1 [compound 2],≤ 30
10,Cc1ccc(-c2cccc(OCc3c(C)cccc3-n3nnn(C)c3=O)n2)cc1 [compound 6],≤ 30
11,COc1cccc(-c2cc(C)cc(OCc3c(C)cccc3-n3nnn(C)c3=O)c2)c1 [compound 148],≤ 30
12,COc1cc(Cl)ccc1-c1cccc(OCc2c(C)cccc2-n2nnn(C)c2=O)n1 [compound 172],≤ 30
13,"COc1cnc(-c2cccc(OCc3c(C)cccc3-n3nnn(C)c3=O)c2)nc1 [compound 163, 1-{2-[3-(5-methoxypyrimidin-2-yl)phenoxymethyl]-3-methylphenyl}-4-methyl-1,4-dihydrotetrazol-5-one]",≤ 30
14,Cc1cccc(-n2nnn(C)c2=O)c1COc1cccc(C2=CCCCC2)c1 [compound 102],≤ 30
15,COc1cc(Cl)ccc1-c1cccc(OCc2c(C)cccc2-n2nnn(C)c2=O)c1 [compound 181],≤ 30
16,Cc1cc(OCc2c(C)cccc2-n2nnn(C)c2=O)cc(-c2ccccc2)c1 [compound 143],≤ 30
17,COc1ccc(-c2cncc(OCc3c(C)cccc3-n3nnn(C)c3=O)n2)cc1 [compound 26],≤ 30
18,COc1ccc(-c2cccc(OCc3c(OC)cccc3-n3nnn(C)c3=O)c2)cc1 [compound 44],≤ 30
19,"Cc1cccc(-n2nnn(C)c2=O)c1COc1cccc(-c2ccccn2)c1 [compound 164, 1-methyl-4-[3-methyl-2-(3-pyridin-2-yl-phenoxymethyl)phenyl]-1,4-dihydrotetrazol-5-one]",≤ 30
20,COc1ccccc1-c1cc(OCc2c(C)cccc2-n2nnn(C)c2=O)ccc1C [compound 121],≤ 30
21,Cc1cccc(-n2nnn(C)c2=O)c1COc1cccc(-c2ccc(S(C)(=O)=O)cc2)n1 [compound 107],≤ 30
22,Cc1cccc(-n2nnn(C)c2=O)c1COc1cccc(-c2ccncc2)n1 [compound 20],≤ 30
23,Cc1cccc(-n2nnn(C)c2=O)c1COc1ccnc(-c2ccc(Cl)cc2)n1 [compound 93],≤ 30
24,Cc1cccc(-n2nnn(C)c2=O)c1COc1cccc(-c2ccnn2C)c1 [compound 177],≤ 30
25,Cc1ccc(-c2cccc(OCc3c(C)cccc3-n3nnn(C)c3=O)c2)s1 [compound 166],≤ 30
26,Cc1cccc(-n2nnn(C)c2=O)c1COc1cccc(-c2ccc3ncccc3c2)n1 [compound 158],≤ 30
27,COc1cccc(-c2cccc(OCc3c(C)cccc3-n3nnn(C)c3=O)c2)c1 [compound 50],≤ 30

# Same assay, conditions: 500 ppm, sprayed 5 days before inoculation (Test Example 5)
row,SMILES,area of lesion spots on the treated plant relative to that on an untreated plant [%]
1,Cn1nnn(-c2cccc(C3CC3)c2COc2cccc(-c3ccc(F)cc3)n2)c1=O [compound 66],≤ 30
2,CCc1cccc(-n2nnn(C)c2=O)c1COc1cccc(-c2ccc(OC)cc2)n1 [compound 14],≤ 30
3,Cc1cccc(-n2nnn(C)c2=O)c1COc1cccc(-c2ccc(OC(F)(F)F)cc2)c1 [compound 48],≤ 30
4,Cc1cccc(-n2nnn(C)c2=O)c1COc1cccc(-c2ccc(Br)cc2)n1 [compound 23],≤ 30

# Reference: patent publication US9867372B2, “Tetrazolinone compound and use of same” (SUMITOMO CHEMICAL COMPANY, LIMITED, priority 2013, dated 2018)
